## Primary screen of a compound library

Source: ChEMBL document CHEMBL3988442, “University of Dundee, Small-Polar-MMV Screening Library” (2021).

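Assay of Toxoplasma gondii numbers, read through their beta-galactosidase reporter with a colour substrate. Concentration: 50 µM. Higher reads as fewer parasites (inferred from which compounds were picked for retests). Of about 18,000 compounds tested this way, about 170 (0.94%) reached 50% or more in at least one test.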

Results are given as percent effect.
The controls that fix the scale are not given in the record; negative values are as filed.
This is an unselected part of the compounds tested.

structure: Cc1noc(C)c1CN1CCn2ccnc2C1
percent effect: 0.7503%

structure: CN(CC(=O)NC(C)(C)C)C(=O)c1cncc(Br)c1
percent effect: 1.164%

structure: Cc1ccccc1OCCC(=O)NC1CCS(=O)(=O)C1 (stereo not given)
percent effect: -17.4%

structure: CCC(C)(C)NCC(=O)N(C)Cc1ccco1
percent effect: -7.88%

structure: COCCNC(C)COC (stereo not given)
percent effect: -2.292%

structure: COc1cccc(NC(=O)C(C)Sc2nnnn2C)c1 (stereo not given)
percent effect: -3.512%

structure: COc1ccc2c(c1)CN(C(=O)C1CCCOC1)CC2 (stereo not given)
percent effect: -7.191%

structure: NC(=O)C1CCN(CCSc2ccccc2F)CC1
percent effect: 18.24%

structure: COC[C@H](O)CNC(C)c1ccc(Cl)s1 (stereo not given in full)
percent effect: 9.754%

structure: CC(C)CCn1ccc(NC(=O)C2(O)CCC2)n1
percent effect: 8.336%

structure: OCc1cc2n(n1)CCCN(Cc1ccoc1)C2
percent effect: 3.327%

structure: CC(C)(C)SCC(=O)NCC(C)(C)N1CC[S+]([O-])CC1
percent effect: 5.884%

structure: O=C(NC1CC1)c1cnn(Cc2ccccc2)c1
percent effect: -6.256%

structure: CC(C)(CNCc1cccnc1)N1CCOCC1
percent effect: 8.878%

structure: CCC1(C(=O)NCCCNC)CCCC1
percent effect: 5.082%

structure: CCc1nc(C(C)(C)N)[nH]c(=O)c1C
percent effect: 47.59%

structure: CCC(N)C(=O)Nc1ccc2c(c1)CCC2 (stereo not given)
percent effect: -1.624%

structure: O=C(NCc1ccnc(NC2CC2)c1)C1CCCCC1
percent effect: 17%

structure: CC(C)c1cccc(NC(=O)CN)c1
percent effect: -3.216%

structure: OC1CCN(Cc2ccccc2)C2(CC2)C1 (stereo not given)
percent effect: -22.96%

structure: CSc1ccc(CN(C)CCC(N)=O)cc1
percent effect: 14.88%

structure: CC(C)C(=O)CNC(=O)C(O)c1ccccc1 (stereo not given)
percent effect: 20.41%

structure: NCc1cccc(N2CCOCC2)c1
percent effect: 10.58%

structure: COCCN1CCCC(NC2CCOCC2)C1 (stereo not given)
percent effect: 9.194%

structure: NC1CCCN(Cc2ccccc2)C1 (stereo not given)
percent effect: 15.18%

structure: Nc1nc(C(=O)N[C@@H]2COCC[C@@H]2OCC2CC2)cs1
percent effect: -16.35%

structure: COCCCNC(=O)CCc1nc(-c2ccsc2)no1
percent effect: -15.18%

structure: COC(=O)c1ccc2cnn(C)c2c1
percent effect: -6.393%

structure: CS(=O)(=O)NC1CCNC1 (stereo not given)
percent effect: -6.599%

structure: CC(C)CC(C)(CN)NS(=O)(=O)c1cccnc1 (stereo not given)
percent effect: 1.835%

structure: CN(C)CC(=O)NC(C)(C(N)=O)c1cccc(Cl)c1 (stereo not given)
percent effect: 2.258%

structure: CCSCc1ccc(C(=O)NCCNC(C)=O)cc1
percent effect: -1.645%

structure: NC(=O)CCn1ccc(N)n1
percent effect: -13.06%

structure: O=C(Cc1ccccn1)N[C@@H]1COCC[C@H]1O
percent effect: -5.715%

structure: Cc1n[nH]c(SCC(=O)NCCCc2ncc[nH]2)n1
percent effect: 4.266%

structure: CCc1noc(C)c1C(=O)NCCN(C)C
percent effect: 7.18%

structure: CC(C)COc1cncc(NC2CCN(C)C2=O)n1 (stereo not given)
percent effect: -7.242%

structure: CCN(CC1CCOC1)C(=O)c1cc(I)c[nH]1 (stereo not given)
percent effect: 1.11%

structure: CCN1CCN(C(=O)Cc2ccc(OC)cc2)CC1
percent effect: -12.23%

structure: COCCN1CCCN(C(=O)c2cc(Cl)c[nH]2)CC1
percent effect: 4.347%

structure: COCCN(CC(N)=O)S(=O)(=O)c1cccc(C)c1
percent effect: -7.115%

structure: CS(=O)(=O)N(CC(N)=O)c1cccc(Cl)c1Cl
percent effect: 4.663%

structure: Cc1ccnc(N2CCOCC2CCO)n1 (stereo not given)
percent effect: 4.951%

Some entries from above, unchanged:

- CCSCc1ccc(C(=O)NCCNC(C)=O)cc1 : -1.645%
- COCCN(CC(N)=O)S(=O)(=O)c1cccc(C)c1 : -7.115%
- CCC(N)C(=O)Nc1ccc2c(c1)CCC2 (stereo not given) : -1.624%
- COCCN1CCCC(NC2CCOCC2)C1 (stereo not given) : 9.194%